From PubChem BioAssay AID1487 (National Center for Advancing Translational Sciences (NCATS), 2009)
The other results are listed elsewhere or left out. Shown are side measurements of this screen, not its main read-out; they come without a call. The list favours compounds with an active or inconclusive main result. Words in brackets tell the shape of the fitted curve; partial curves, single points and poor fits give uncertain potencies.

Test: qHTS Assay for Modulators of Lamin A Splicing
Settings: HeLa LMNA splicing GFP/RFP minigene ratio, 48 h
How it was run: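 S3 HeLa cells stably expressing lamin A-EGFP splicing minigene plus DsRed2, 600 cells/well, 48 h compound exposure at 37C. Laser-scanning cytometry; analysed as GFP (500-530 nm)/RFP (575-640 nm) total intensity ratio; 0.5% DMSO vehicle.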

[1] = measured here: GFP splicing reporter channel
[2] = measured here: RFP viability control channel

Row | SMILES | AC50 [1] | AC50 [2]
1 | CC(=O)Nc1ccc(S(=O)(=O)NC2=C(N3CCN(c4ccc(F)cc4)CC3)C(=O)c3ccccc3C2=O)cc1 | 25.1 µM [falling, single point] | –
2 | O=C(NCc1ccccn1)C1CCN(Cc2cccc(OCc3ccccc3)c2)CC1 | 12.6 µM [rising, partial curve, poor fit] | –
3 | Cn1nc(C(=O)Nc2ccc(S(=O)(=O)N3CCCCC3)cc2)ccc1=O | 35.5 µM [rising, single point] | 35.5 µM [rising, single point]
4 | COc1ccc(OC)c(CCNC(=O)CSc2ccsc2[N+](=O)[O-])c1 | – | 10 µM [rising, partial curve, poor fit]
5 | Cn1c(SCC(=O)Nc2ccc(N3CCOCC3)c(Cl)c2)nnc1C(O)c1ccccc1 (stereo not drawn) | – | 22.4 µM [rising, single point]
6 | Cc1ccc(C)n1NC(=O)c1ccco1 | 0.355 µM [falling, partial curve, poor fit] | 1.78 µM [falling, partial curve, poor fit]
7 | Cc1ccc(S(=O)(=O)N(C)c2ccc(OCC(=O)Nc3nc4ccccc4s3)cc2)cc1 | 3.98 µM [rising, full curve, poor fit] | 3.98 µM [rising, full curve]
8 | NNc1nc2c(-c3ccc(Cl)cc3)nnn2c2ccccc12 | 12.6 µM [falling, single point] | –
9 | CCOc1ccc(Br)cc1S(=O)(=O)Nc1ccc(C(=O)OC(C)C(=O)N(C)c2ccccc2)cc1 (stereo not drawn) | 12.6 µM [rising, single point] | 14.1 µM [rising, single point]
10 | CN(CC(=O)Nc1ccccc1Sc1ccccc1)Cc1nc2ccccc2c(=O)[nH]1 | – | 35.5 µM [rising, partial curve, poor fit]
11 | O=C(Cc1ccc(Cl)cc1)Nc1cccc(S(=O)(=O)Nc2ccccc2F)c1 | – | 28.2 µM [rising, single point]
12 | Oc1ccc(/C=C/c2nc(-c3ccccc3O)n(-c3ccccc3)n2)cc1 | 25.1 µM [falling, single point] | 22.4 µM [falling, single point]
13 | O=C(CCN1CCCCC1)NNC(=O)C12CC3CC(CC(C3)C1)C2 | – | 0.02 µM [rising, full curve, poor fit]
14 | O=S(=O)(Nc1nc2ccccc2nc1N1CCc2ccccc2C1)c1ccc(Br)cc1 | – | 14.1 µM [rising, partial curve]
15 | COc1cccc(CC2(CO)CCN(C(=O)NC3CCCCC3)CC2)c1 | 3.98 µM [falling, full curve, poor fit] | 2.51 µM [falling, full curve, poor fit]
16 | CN(C(=O)CSc1nc2ccc(NC(=O)c3ccccc3)cc2s1)c1ccccc1 | 0.0794 µM [falling, full curve, poor fit] | –
17 | CCCCOc1ccc(-c2nc(=S)[nH][nH]2)cc1 | 31.6 µM [rising, single point] | 35.5 µM [rising, single point]
18 | Cc1occc1C(=O)NNC(=O)C1CCCC1 | – | 3.55 µM [falling, full curve, poor fit]

Reformatted field by field: 2 of the compounds above
NNc1nc2c(-c3ccc(Cl)cc3)nnn2c2ccccc12
  AC50 [1]: 12.6 µM [falling, single point]
O=S(=O)(Nc1nc2ccccc2nc1N1CCc2ccccc2C1)c1ccc(Br)cc1
  AC50 [2]: 14.1 µM [rising, partial curve]

(further entries)

Row | SMILES | AC50 [1] | AC50 [2]
19 | CCOc1ccccc1/C=C/c1onc(C)c1S(=O)(=O)N1CCC(C(=O)N2CCCCC2)CC1 | – | 0.0398 µM [falling, full curve, poor fit]
20 | CSc1ncccc1C(=O)Nc1nc2c(C)cccc2s1 | 11.2 µM [rising, single point] | 12.6 µM [rising, single point]
21 | Cc1nc2ccccc2nc1SCC(=O)c1ccccc1 | – | 8.91 µM [rising, single point]
22 | Cc1ccccc1-c1noc(CSc2nc(-c3ccc(F)cc3)cc(=O)[nH]2)n1 | 7.08 µM [falling, full curve, poor fit] | 3.98 µM [falling, full curve, poor fit]
23 | Cc1ccc(NC(=O)CCCc2ccccc2)nc1 | 4.47 µM [rising, partial curve, poor fit] | –
24 | O=S1(=O)CCN2C(Cc3ccc(SC(F)F)cc3)=CSC2=N1 | – | 1.41 µM [rising, partial curve]
25 | COc1ccc(NC(=S)N(CCCN2CCCC2)Cc2cccs2)cc1 | 2.82 µM [rising, full curve, poor fit] | 3.98 µM [rising, partial curve]
26 | CCN(CC)c1ccc(NC2=C(Cl)C(=O)c3ccccc3C2=O)cc1 | 35.5 µM [falling, single point] | 3.98 µM [rising, single point]
27 | CCc1ccccc1NS(=O)(=O)c1ccc2[nH]cc(C(=O)NC3CCCC3)c(=O)c2c1 | – | 31.6 µM [rising, single point]
28 | COC(=O)c1ccccc1NC(=O)CSc1ccccn1 | – | 0.501 µM [falling, full curve, poor fit]
29 | CCOc1c2ccc(C(=O)NC3CCCc4ccccc43)cc2nn1CC (stereo not drawn) | – | 20 µM [rising, single point]
30 | COc1c(Br)cc(C(N)=O)cc1OCc1ccccc1 | – | 31.6 µM [falling, single point]
31 | CCOc1ccc(C(=O)NCCc2sc(-c3cccc(F)c3)nc2C)cc1OCC | 35.5 µM [falling, partial curve, poor fit] | 0.0251 µM [falling, full curve]
32 | CCOC(=O)CC(=O)CSc1nc(-c2ccccc2)cc(-c2ccc(Cl)cc2)c1C#N | 35.5 µM [rising, single point] | –
33 | COc1ccc(OC)c(-c2csc(NC(=O)CSc3ccccc3)n2)c1 | 12.6 µM [rising, single point] | 31.6 µM [rising, single point]
34 | Cc1ccc(-n2nc3ccc(NC(=O)c4cccc([N+](=O)[O-])c4C)cc3n2)cc1 | – | 5.01 µM [rising, single point]
35 | COc1ccc(OC)c(NS(=O)(=O)c2ccc(SC)cc2)c1 | – | 20 µM [rising, single point]
